In patent US20250268844A1, “ANTICANCER AGENTS BASED ON CYCLOPENTENONES” (UNIVERSITY OF CRETE, priority 2022, published 2025):
Some entries share one result that the patent states for a list of compounds.

Tests used:
[1] = system: 17 cell lines representing a broad spectrum of human tumors; assay: MTT conversion assay, panel of cell lines, comparison with cis-platin; type: cell-based; conditions: depending on the cell line, 48 hour exposure
[2] = system: A2780 ovarian cancer cells; assay: PrestoBlue cell viability assay; type: cell-based, human; conditions: 72 hrs
Procedure: The effects of Enone-1 and Enone-2 on cancer cells were confirmed using a second methodology, namely the PrestoBlue assay (PrestoBlue™ Cell Viability Reagent, Thermo Fisher, Catalog number: A13261), a cell permeable resazurin-based solution that functions as a cell viability indicator. A2780 ovarian cancer cells were plated as described above for the MTT assays and Enone drugs were added at increasing concentrations as indicated in FIG. 2. Cell viability was determined 72 hrs later following the addition of PrestoBlue, according to the manufacturer's instructions (Thermo Fisher).

Compound | fold higher toxicity than cis-platin [1] | fold higher cancer cell killing efficacy than oxaliplatin [2] | fold higher cytotoxicity than cis-platin [2]
C[C@@]1(O)C=CC(=O)[C@H]1c1ccc(F)c2ccccc12 (stereo in doubt) [Enone-2, 5-(4-fluoronaphthalen-1-yl)-4-hydroxy-4-methylcyclopent-2-en-1-one] | 2.5-50 fold | 1.25-2 fold | 8-13 fold
C[C@@]1(O)C=CC(=O)C1c1ccc2ccccc2c1 (stereo in doubt) [Enone-1, 4-hydroxy-4-methyl-5-(naphthalen-2-yl)cyclopent-2-en-1-one] | 2.5-50 fold | 1.25-2 fold | 8-13 fold
